According to PMC12220973:
Results are given in words; binding and its absence hold for the method and conditions named. Binding seen in cells or lysates may run through a third protein. A yes stands for co-enrichment or nearness to the bait. Other partners may have been found.

Protein sequences, listed by entry. Tags and fused reporters are not part of them.
UniProt P19474: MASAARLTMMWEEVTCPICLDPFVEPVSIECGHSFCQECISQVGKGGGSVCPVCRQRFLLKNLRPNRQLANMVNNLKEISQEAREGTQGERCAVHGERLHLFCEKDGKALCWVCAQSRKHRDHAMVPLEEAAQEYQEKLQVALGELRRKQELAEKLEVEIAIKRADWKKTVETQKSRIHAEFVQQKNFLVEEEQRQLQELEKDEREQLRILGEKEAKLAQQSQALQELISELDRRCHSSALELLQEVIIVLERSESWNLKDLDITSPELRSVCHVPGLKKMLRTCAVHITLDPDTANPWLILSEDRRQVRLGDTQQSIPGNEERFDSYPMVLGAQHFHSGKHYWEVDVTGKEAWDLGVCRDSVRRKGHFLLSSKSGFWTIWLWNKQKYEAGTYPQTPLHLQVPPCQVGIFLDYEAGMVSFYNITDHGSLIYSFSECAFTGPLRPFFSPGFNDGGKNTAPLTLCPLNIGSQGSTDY
UniProt P46934: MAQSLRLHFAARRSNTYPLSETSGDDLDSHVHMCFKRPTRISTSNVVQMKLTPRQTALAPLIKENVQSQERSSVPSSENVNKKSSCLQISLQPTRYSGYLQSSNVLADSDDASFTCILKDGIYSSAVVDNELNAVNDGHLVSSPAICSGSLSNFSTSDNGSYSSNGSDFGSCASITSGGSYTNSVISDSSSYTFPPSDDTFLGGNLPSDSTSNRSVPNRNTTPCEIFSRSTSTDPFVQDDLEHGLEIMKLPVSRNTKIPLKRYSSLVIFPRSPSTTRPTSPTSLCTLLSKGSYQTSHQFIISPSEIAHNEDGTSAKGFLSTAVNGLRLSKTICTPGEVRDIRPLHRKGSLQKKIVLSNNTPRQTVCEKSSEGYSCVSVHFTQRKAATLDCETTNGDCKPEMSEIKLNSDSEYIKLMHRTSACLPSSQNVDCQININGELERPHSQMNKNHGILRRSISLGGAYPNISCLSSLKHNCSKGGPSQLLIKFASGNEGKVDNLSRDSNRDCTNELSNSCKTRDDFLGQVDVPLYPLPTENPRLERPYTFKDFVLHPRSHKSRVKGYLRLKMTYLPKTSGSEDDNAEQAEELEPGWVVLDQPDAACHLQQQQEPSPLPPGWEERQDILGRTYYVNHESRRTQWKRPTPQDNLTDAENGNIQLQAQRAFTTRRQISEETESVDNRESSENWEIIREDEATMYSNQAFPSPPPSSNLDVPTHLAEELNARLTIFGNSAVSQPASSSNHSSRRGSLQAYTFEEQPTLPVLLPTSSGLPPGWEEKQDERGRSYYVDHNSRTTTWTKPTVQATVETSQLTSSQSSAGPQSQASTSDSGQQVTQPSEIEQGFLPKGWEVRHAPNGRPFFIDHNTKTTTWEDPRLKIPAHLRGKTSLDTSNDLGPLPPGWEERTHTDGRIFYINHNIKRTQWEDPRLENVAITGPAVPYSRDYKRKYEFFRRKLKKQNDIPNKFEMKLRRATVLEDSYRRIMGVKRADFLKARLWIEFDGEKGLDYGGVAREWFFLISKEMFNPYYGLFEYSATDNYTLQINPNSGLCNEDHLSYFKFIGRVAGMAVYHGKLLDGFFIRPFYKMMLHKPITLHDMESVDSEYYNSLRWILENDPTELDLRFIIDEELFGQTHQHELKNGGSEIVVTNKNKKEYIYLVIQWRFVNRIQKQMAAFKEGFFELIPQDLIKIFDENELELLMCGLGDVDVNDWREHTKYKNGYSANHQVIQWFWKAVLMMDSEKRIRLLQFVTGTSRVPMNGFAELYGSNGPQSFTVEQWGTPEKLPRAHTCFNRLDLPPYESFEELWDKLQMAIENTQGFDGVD

Target: T1, PBX1 (human (endogenous in human glomerular MCs)) (UniProt P40424)
T1 sequence: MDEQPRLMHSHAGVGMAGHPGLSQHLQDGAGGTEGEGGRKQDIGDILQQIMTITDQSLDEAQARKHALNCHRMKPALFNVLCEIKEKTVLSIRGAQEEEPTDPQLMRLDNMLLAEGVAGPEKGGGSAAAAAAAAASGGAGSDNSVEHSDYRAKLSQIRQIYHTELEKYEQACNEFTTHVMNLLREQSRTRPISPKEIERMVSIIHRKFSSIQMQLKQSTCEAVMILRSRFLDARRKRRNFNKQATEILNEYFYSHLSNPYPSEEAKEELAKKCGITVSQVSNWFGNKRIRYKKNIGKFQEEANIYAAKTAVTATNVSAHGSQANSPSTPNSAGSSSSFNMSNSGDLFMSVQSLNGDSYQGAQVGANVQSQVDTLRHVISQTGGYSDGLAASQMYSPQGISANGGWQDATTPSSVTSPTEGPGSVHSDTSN
Test: affinity purification with mass spectrometry; mass spectrometry of PBX1-binding proteins in MCs; E3 ubiquitin ligases screened from both the HC and LN (DNA-IC stimulated) groups; only proteins with more than 1 peptide shown

Row | binding | Substance
1 | binds | SIAH1B (enzyme)
2 | binds | TRIM21 (from UniProt P19474 1-475) (enzyme)
3 | binds | NEDD4 (from UniProt P46934 1-1319) (enzyme)
